Results published in paper PMC9860818.
Results are given in words; binding and its absence hold for the method and conditions named. In cells and extracts the contact can be indirect. Some binding calls cover weakened binding; strength is not graded here.

By UniProt entry, the sequences of proteins in these tests, tags left out. Where a name states a change or a piece, a line headed by the entry shows the natural chain unless it says otherwise.
UniProt Q9QUM0: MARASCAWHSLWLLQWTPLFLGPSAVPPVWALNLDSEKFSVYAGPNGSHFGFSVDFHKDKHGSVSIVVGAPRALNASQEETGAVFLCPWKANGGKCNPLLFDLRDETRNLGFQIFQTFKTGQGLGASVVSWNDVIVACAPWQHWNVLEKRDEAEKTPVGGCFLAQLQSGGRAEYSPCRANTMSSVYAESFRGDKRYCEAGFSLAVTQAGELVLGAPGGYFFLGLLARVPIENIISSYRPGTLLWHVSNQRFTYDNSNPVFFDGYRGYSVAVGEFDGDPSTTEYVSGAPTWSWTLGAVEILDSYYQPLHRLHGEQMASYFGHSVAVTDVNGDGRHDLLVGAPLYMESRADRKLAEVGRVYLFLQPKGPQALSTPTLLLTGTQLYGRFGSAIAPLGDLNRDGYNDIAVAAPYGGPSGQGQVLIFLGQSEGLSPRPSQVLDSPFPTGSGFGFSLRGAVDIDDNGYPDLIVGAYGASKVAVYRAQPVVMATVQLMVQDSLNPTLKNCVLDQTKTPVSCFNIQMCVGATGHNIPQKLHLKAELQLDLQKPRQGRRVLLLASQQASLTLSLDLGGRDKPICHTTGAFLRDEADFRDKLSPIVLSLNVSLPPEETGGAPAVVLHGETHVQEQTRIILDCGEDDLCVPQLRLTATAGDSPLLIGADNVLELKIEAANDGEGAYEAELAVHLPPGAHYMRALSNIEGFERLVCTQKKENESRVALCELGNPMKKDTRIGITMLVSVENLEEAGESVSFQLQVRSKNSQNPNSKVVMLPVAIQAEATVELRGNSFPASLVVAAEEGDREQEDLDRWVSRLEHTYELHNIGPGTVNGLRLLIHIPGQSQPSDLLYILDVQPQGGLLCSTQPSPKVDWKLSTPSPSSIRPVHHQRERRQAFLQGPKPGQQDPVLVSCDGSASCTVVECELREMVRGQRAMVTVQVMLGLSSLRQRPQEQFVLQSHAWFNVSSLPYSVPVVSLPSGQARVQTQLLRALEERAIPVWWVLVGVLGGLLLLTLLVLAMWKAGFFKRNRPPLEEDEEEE
UniProt O54890: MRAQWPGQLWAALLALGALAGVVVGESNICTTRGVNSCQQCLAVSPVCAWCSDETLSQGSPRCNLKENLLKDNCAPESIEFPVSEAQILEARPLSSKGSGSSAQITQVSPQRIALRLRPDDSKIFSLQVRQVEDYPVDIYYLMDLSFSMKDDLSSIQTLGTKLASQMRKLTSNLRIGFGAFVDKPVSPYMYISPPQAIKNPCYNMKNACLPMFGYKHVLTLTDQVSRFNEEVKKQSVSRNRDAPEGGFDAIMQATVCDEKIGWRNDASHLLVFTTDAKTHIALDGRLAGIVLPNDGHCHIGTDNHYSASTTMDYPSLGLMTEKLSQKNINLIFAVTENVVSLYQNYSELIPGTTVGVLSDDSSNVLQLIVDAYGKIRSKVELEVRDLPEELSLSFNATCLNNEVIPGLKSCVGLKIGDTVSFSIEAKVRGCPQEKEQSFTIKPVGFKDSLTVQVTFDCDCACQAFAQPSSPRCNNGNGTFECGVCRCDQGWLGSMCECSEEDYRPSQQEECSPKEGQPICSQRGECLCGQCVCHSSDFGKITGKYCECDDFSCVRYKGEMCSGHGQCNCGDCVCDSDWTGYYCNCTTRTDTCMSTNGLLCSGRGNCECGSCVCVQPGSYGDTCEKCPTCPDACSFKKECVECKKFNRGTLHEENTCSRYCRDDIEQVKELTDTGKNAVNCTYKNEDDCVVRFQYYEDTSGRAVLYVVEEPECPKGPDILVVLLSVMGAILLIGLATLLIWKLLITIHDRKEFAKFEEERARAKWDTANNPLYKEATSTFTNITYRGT

Target: αIIbβ3 integrin (mouse (endogenous in platelets)) (UniProt Q9QUM0+O54890)
Assay: cross-linking; washed mouse platelets (wild-type or SHIP1-deficient) in suspension with integrilin 40 µg/mL, resting or stimulated with thrombin 0.5 IU/mL at 37 °C, in some samples after Y27632 or blebbistatin; 0.25 mM Sulfo-EGS (linker 1.6 nm) for 15 min at room temperature; lysates immunoblotted for β3, multimers quantified

binding: binds
Substance: αIIbβ3 integrin (from UniProt Q9QUM0 32-1033; O54890 26-787) (complex)
